# Not every detail of the peptide structures is certain; ends, links or a residue may be inferred.
# Tested on: washed platelets
# Assay: washed platelet aggregation assay (agonist peptides)
# Assay type: cell-based, human
# Conditions: PAR4 agonist peptide
compound,measurement,value
C[C@H](N)C(=O)N[C@@H](Cc1ccc(O)cc1)C(=O)N1CCC[C@H]1C(=O)NCC(=O)N[C@@H](CCCCN)C(=O)N[C@@H](Cc1ccccc1)C(=O)O [AYPGKF],EC50,12 µM
